Source: PubChem BioAssay AID1347076 (National Center for Advancing Translational Sciences (NCATS), 2019)
The whole screen tested about 400,000 compounds, of which about 13,000 (3.2%) were called active. Inconclusive results, whose numbers are uncertain, are shown with a selection of clear calls. The call rests on the fitted dose curve; in most records, active means well fitted cell-killing curve with a large enough effect; inconclusive means small, poorly fitted or top-dose-only effect, or effect the other way; inactive means flat fitted curve, though single readings scatter. Potencies of inconclusive entries are doubtful fits and often do not repeat.
On the % scale 0 is the no-effect control and ±100 the full control effect; potency means the concentration at half of the fitted maximal effect.

Test: qHTS assay for MDR1-selective chemotherapeutics: Primary screen using the drug-selected MDR subline cells KB-V1; further: nearly all actives have a fitted effect of over 60% in size
Conditions: KB-V1 MDR cells viability, CellTiter-Glo, 72 h; activity change, negative = cytotoxicity: at 46.1 µM (top of the series)
How it was run: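 Following 72 h at 37 degrees C with compound, KB-V1 cell viability was read by CellTiter-Glo luminescence, medium being phenol-red-free DMEM plus 10% FBS; concentration-response parameters came from normalized, curve-fitted qHTS data.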
For CN1CCN(C2=Cc3ccccc3Sc3cc(F)c(Cl)cc32)CC1, the Potency was inconclusive: 14.6 µM [cytotoxic, partial curve]. In the case of O=C(O)c1cccc(N/N=C/c2ccc(-c3ccccc3)cc2)c1, the Potency is reported as “inactive”. In the case of COc1cc(C)ccc1OCC(=O)Nc1ccccc1N1CCOCC1, the Potency is reported as active: 5.8 µM. With Cc1cc(-c2cccs2)n[nH]1 the Potency was inconclusive: 23.1 µM [rising, single point]. For Cn1c2ccccc2c(=O)c2c(=O)n(Cc3ccco3)c(COc3ccccc3)nc21, the Potency was inconclusive: 29.1 µM [cytotoxic, single point]. With CCc1ccc(C(=O)c2oc3nc(C)cc(C)c3c2N)cc1 the Potency was active: 2.59 µM. For CCC(=O)c1ccc(OCc2ccccc2)c(OC)c1, the Potency was inconclusive: 29.1 µM [cytotoxic, single point]. For C=CCN1C(=O)C(CC(=O)Nc2ccc(OC)cc2)SC1=Nc1ccc(S(N)(=O)=O)cc1 (configuration not stated), the Potency was “inactive”. In the case of Cc1c[n+](CC(=O)c2ccccc2)c(C)cn1, the Potency is reported as inconclusive: 23.1 µM [rising, single point]. For CCn1c(CCNC(=O)c2ccc(OC)cc2)nnc1SCc1ccc(Cl)c(Cl)c1, the Potency was active: 4.61 µM. With CNc1nc(CC(C)=O)ns1 the Potency was inconclusive: 25.9 µM [rising, single point]. With CCOc1ccc(N2CC(C(=O)N3CCN(c4ccccn4)CC3)CC2=O)cc1 (configuration not stated) the Potency was inconclusive: 13 µM [cytotoxic, partial curve, poor fit]. For COC(=O)Cc1c[nH]c2cccc(OCC(O)CN(Cc3ccc([N+](=O)[O-])cc3)C(C)(C)C)c12 (configuration not stated), the Potency was active: 5.8 µM. With CC(=O)Nc1ccc(NC(=O)C(C)OC(=O)c2cccs2)cc1 (configuration not stated) the Potency was inconclusive: 18.4 µM [rising, partial curve]. For O=C(CCCc1ccccc1)NCCc1ccccc1, the Potency was “inactive”. With COc1cc(C2Nc3ccc4ncccc4c3C3=C2C(=O)CCC3)ccc1O (configuration not stated) the Potency was “inactive”. For COC(=O)[C@H]1C[C@H](OC(=O)NCc2ccccc2)[C@@]2(O)CN(S(=O)(=O)c3ccc(C)cc3)CC2[C@H]1C(=O)OC (some centres not stated), the Potency was “inactive”. In the case of COc1ccc(OC)c(N(C(=O)c2snc(C(N)=O)c2N)C(C(=O)NCc2ccccc2)c2ccc(O)cc2)c1 (configuration not stated), the Potency is reported as inconclusive: 18.4 µM [rising, partial curve, poor fit]. For COc1ccccc1CCNc1ncnc2nc[nH]c12, the Potency was “inactive”. For Cc1cc(C)c(NC(=O)CSc2nc(=O)n(Cc3ccncc3)c3c2CCC3)c(C)c1, the Potency was “inactive”. In the case of CN(C(=O)COC(=O)CCc1c[nH]c2ccccc12)C(c1ccccc1)c1ccccc1, the Potency is reported as inconclusive: 9.2 µM [cytotoxic, partial curve, poor fit]. In the case of COc1ccc(S(=O)(=O)N/N=C(/C)c2ccncc2)cc1OC, the Potency is reported as inconclusive: 0.731 µM [rising, full curve, poor fit]. In the case of Cc1nn(Cc2ccc(C(=O)NC3CCCCC3)o2)c(C)c1Br, the Potency is reported as “inactive”. With COc1ccccc1C(=O)NC1(C(F)(F)F)NC(=O)N(CCc2ccccc2)C1=O (configuration not stated) the Potency was inconclusive: 29.1 µM [rising, single point]. For O=C(CSc1nnc2scc(-c3ccc(Cl)cc3)n12)Nc1ccc(F)cc1, the Potency was “inactive”. With CC(O)(c1ccc(F)c(F)c1)c1nc(-c2ccc3ccccc3c2)cs1 (configuration not stated) the activity change, negative = cytotoxicity was inconclusive: -27.7%. In the case of CCOC(=O)N1CCC(NC(=O)CS(=O)(=O)Cc2nc(-c3ccccc3Cl)oc2C)CC1, the activity change, negative = cytotoxicity is reported as inconclusive: -31.1%. For COc1ccc(N2CCN(C(=O)c3ccc(OCc4c(C)noc4C)c(OC)c3)CC2)cc1, the Potency was active: 11.6 µM. In the case of O=C(NC1CCCCC1)C(C1CC1)n1c(=O)c(-c2cc3ccccc3[nH]2)nc2ccccc21 (configuration not stated), the Potency is reported as active: 23.1 µM. For Cc1ccc2[nH]c3c(c2c1)CCCC3C(N)=O (configuration not stated), the Potency was “inactive”. With NC(=O)c1ccc(N=Cc2ccc([N+](=O)[O-])s2)cc1 the Potency was inconclusive: 18.4 µM [cytotoxic, single point]. In the case of Cc1nc(C(=O)Nc2cc(Cl)ccc2Cl)nn1-c1cc(OC(C)C)c(Cl)cc1Cl, the Potency is reported as active: 14.6 µM. For CCN(CC)CCCNC(=O)Cn1cnc2sc(C)c(S(=O)(=O)N3CCN(c4ncccn4)CC3)c2c1=O, the Potency was inconclusive: 29.1 µM [rising, single point]. In the case of O=C(Nc1ccccc1)NC1CCCc2ccccc21 (configuration not stated), the Potency is reported as “inactive”. In the case of CCCCCOc1ccc(NC(=O)Cn2c(-c3nonc3N)nc3ccccc32)cc1, the Potency is reported as inconclusive: 6.51 µM [rising, partial curve]. In the case of CCC1=NN(C(=O)c2ccc(C)cc2)C(O)(c2ccc(Br)cc2)C1 (configuration not stated), the Potency is reported as active: 20.6 µM. With COc1cccc(C(=O)Nc2nc(-c3nnn(-c4ccccc4C(F)(F)F)c3C)ns2)c1 the Potency was “inactive”. In the case of CCC(C)(C)C1CCC(=NNC(=O)c2ccoc2C)CC1 (configuration not stated), the Potency is reported as inconclusive: 29.1 µM [rising, partial curve, poor fit]. In the case of Cc1cc(C)c(OCC(=O)OCC(=O)N2c3ccccc3CC2C)c(C)c1 (configuration not stated), the Potency is reported as inconclusive: 29.1 µM [rising, single point]. In the case of COC(=O)c1[nH]c2ccccc2c1NS(=O)(=O)c1ccc(F)c(C)c1, the Potency is reported as inconclusive: 32.6 µM [cytotoxic, partial curve, poor fit]. In the case of Cc1ccc2c(c1)C(c1ccccc1)N(C(=O)COc1ccc(Cl)cc1Cl)CC(=O)N2 (configuration not stated), the Potency is reported as inconclusive: 23.1 µM [cytotoxic, single point]. In the case of CCOC(=O)c1c(C)n(C)c2ccc(O)c(S(=O)(=O)c3ccccc3)c12, the Potency is reported as inconclusive: 11.6 µM [cytotoxic, partial curve, poor fit]. For COc1cc(CN2CCCCCC2)cc(OC)c1OC, the Potency was “inactive”. With CCc1ccc(NC(=O)c2ccc(OC)c([N+](=O)[O-])c2)cc1 the Potency was active: 14.6 µM. For COc1ccc(NC(=S)NCc2ccccc2Cl)c(OC)c1, the Potency was inconclusive: 20.6 µM [cytotoxic, single point]. In the case of O=C(CSc1nnc(C2COc3ccccc3O2)o1)N1CCN(c2ccccc2)CC1 (configuration not stated), the Potency is reported as inconclusive: 18.4 µM [rising, single point]. In the case of Cc1ccc(-c2noc(C3CCCN(C(=O)c4ccccc4)C3)n2)o1 (configuration not stated), the Potency is reported as inconclusive: 9.2 µM [cytotoxic, partial curve, poor fit].
